Data: doi:10.1101/2025.06.20.659860
No constants are given. Whether binding was seen depends on the method and setting. Binding seen in cells or lysates may run through a third protein. A yes stands for co-enrichment or nearness to the bait. Other partners may have been found.

B1: DDOST (endogenous, Huh7) (protein, UniProt P39656 43-456)
chain: SGPRTLVLLDNLNVRETHSLFFRSLKDRGFELTFKTADDPSLSLIKYGEFLYDNLIIFSPSVEDFGGNINVETISAFIDGGGSVLVAASSDIGDPLRELGSECGIEFDEEKTAVIDHHNYDISDLGQHTLIVADTENLLKAPTIVGKSSLNPILFRGVGMVADPDNPLVLDILTGSSTSYSFFPDKPITQYPHAVGKNTLLIAGLQARNNARVIFSGSLDFFSDSFFNSAVQKAAPGSQRYSQTGNYELAVALSRWVFKEEGVLRVGPVSHHRVGETAPPNAYTVTDLVEYSIVIQQLSNGKWVPFDGDDIQLEFVRIDPFVRTFLKKKGGKYSVQFKLPDVYGVFQFKVDYNRLGYTHLYSSTQVSVRPLQHTQYERFIPSAYPYYASAFSMMLGLFIFSIVFLHMKEKEKSD
B2: RPN1 (endogenous, Huh7) (protein, UniProt P04843 24-607)
chain: ASSEAPPLINEDVKRTVDLSSHLAKVTAEVVLAHLGGGSTSRATSFLLALEPELEARLAHLGVQVKGEDEEENNLEVRETKIKGKSGRFFTVKLPVALDPGAKISVIVETVYTHVLHPYPTQITQSEKQFVVFEGNHYFYSPYPTKTQTMRVKLASRNVESYTKLGNPTRSEDLLDYGPFRDVPAYSQDTFKVHYENNSPFLTITSMTRVIEVSHWGNIAVEENVDLKHTGAVLKGPFSRYDYQRQPDSGISSIRSFKTILPAAAQDVYYRDEIGNVSTSHLLILDDSVEMEIRPRFPLFGGWKTHYIVGYNLPSYEYLYNLGDQYALKMRFVDHVFDEQVIDSLTVKIILPEGAKNIEIDSPYEISRAPDELHYTYLDTFGRPVIVAYKKNLVEQHIQDIVVHYTFNKVLMLQEPLLVVAAFYILFFTVIIYVRLDFSITKDPAAEARMKVACITEQVLTLVNKRIGLYRHFDETVNRYKQSRDISTLNSGKKSLETEHKALTSEIALLQSRLKTEGSDLCDRVSEMQKLDAQVKELVLKSAVEAERLVAGKLKKDTYIENEKLISGKRQELVTKIDHILDAL
B3: STT3A (endogenous, Huh7) (protein, UniProt P46977 1-705)
chain: MTKFGFLRLSYEKQDTLLKLLILSMAAVLSFSTRLFAVLRFESVIHEFDPYFNYRTTRFLAEEGFYKFHNWFDDRAWYPLGRIIGGTIYPGLMITSAAIYHVLHFFHITIDIRNVCVFLAPLFSSFTTIVTYHLTKELKDAGAGLLAAAMIAVVPGYISRSVAGSYDNEGIAIFCMLLTYYMWIKAVKTGSICWAAKCALAYFYMVSSWGGYVFLINLIPLHVLVLMLTGRFSHRIYVAYCTVYCLGTILSMQISFVGFQPVLSSEHMAAFGVFGLCQIHAFVDYLRSKLNPQQFEVLFRSVISLVGFVLLTVGALLMLTGKISPWTGRFYSLLDPSYAKNNIPIIASVSEHQPTTWSSYYFDLQLLVFMFPVGLYYCFSNLSDARIFIIMYGVTSMYFSAVMVRLMLVLAPVMCILSGIGVSQVLSTYMKNLDISRPDKKSKKQQDSTYPIKNEVASGMILVMAFFLITYTFHSTWVTSEAYSSPSIVLSARGGDGSRIIFDDFREAYYWLRHNTPEDAKVMSWWDYGYQITAMANRTILVDNNTWNNTHISRVGQAMASTEEKAYEIMRELDVSYVLVIFGGLTGYSSDDINKFLWMVRIGGSTDTGKHIKENDYYTPTGEFRVDREGSPVLLNCLMYKMCYYRFGQVYTEAKRPPGFDRVRNAEIGNKDFELDVLEEAYTTEHWLVRIYKVKDLDNRGLSRT
B4: CPSF3 (endogenous, Huh7) (protein, UniProt Q9UKF6 1-684)
chain: MSAIPAEESDQLLIRPLGAGQEVGRSCIILEFKGRKIMLDCGIHPGLEGMDALPYIDLIDPAEIDLLLISHFHLDHCGALPWFLQKTSFKGRTFMTHATKAIYRWLLSDYVKVSNISADDMLYTETDLEESMDKIETINFHEVKEVAGIKFWCYHAGHVLGAAMFMIEIAGVKLLYTGDFSRQEDRHLMAAEIPNIKPDILIIESTYGTHIHEKREEREARFCNTVHDIVNRGGRGLIPVFALGRAQELLLILDEYWQNHPELHDIPIYYASSLAKKCMAVYQTYVNAMNDKIRKQININNPFVFKHISNLKSMDHFDDIGPSVVMASPGMMQSGLSRELFESWCTDKRNGVIIAGYCVEGTLAKHIMSEPEEITTMSGQKLPLKMSVDYISFSAHTDYQQTSEFIRALKPPHVILVHGEQNEMARLKAALIREYEDNDEVHIEVHNPRNTEAVTLNFRGEKLAKVMGFLADKKPEQGQRVSGILVKRNFNYHILSPCDLSNYTDLAMSTVKQTQAIPYTGPFNLLCYQLQKLTGDVEELEIQEKPALKVFKNITVIQEPGMVVLEWLANPSNDMYADTVTTVILEVQSNPKIRKGAVQKVSKKLEMHVYSKRLEIMLQDIFGEDCVSVKDDSILSVTVDGKTANLNLETRTVECEEGSEDDESLREMVELAAQRLYEALTPVH

Tests used:
[1] = molecular target: DENV NS4A (AP-MS, DENV-infected Huh7) (dengue virus serotype 2 (EDEN2)); test: affinity purification with mass spectrometry
[2] = molecular target: DENV NS3 (AP-MS, DENV-infected Huh7) (dengue virus serotype 2 (EDEN2)); test: affinity purification with mass spectrometry

| Binder | binding [1] | binding [2] |
| --- | --- | --- |
| B1 | binds | – |
| B2 | binds | – |
| B3 | binds | – |
| B4 | – | binds |
